This is an account of results in patent US20200407723.

The test system of series [1] is rabbit IgG (Oryctolagus cuniculus). As to the kind of experiment: pull-down. The conditions noted are these: 2'-F U at 6, 9, 21; 2'-F C at 20; ribonucleotides at A3, G4, G5, G7, G16, G17; all other positions deoxyribonucleotides; negative control; negligible non-specific binding in Tris with Mg2+; high non-specific binding with Zn2+ or Mn2+; purified native protein; protein details: Sigma-Aldrich; label: 5'-biotin.

The subject of series [2] is human IgG (polyclonal, from serum + Fc domain) (Homo sapiens). Description: pull-down. To be noted: 2'-F U at 6, 9, 21; 2'-F C at 20; ribonucleotides at A3, G4, G5, G7, G16, G17; all other positions deoxyribonucleotides; immobilized on streptavidin resin; best in 10 mM Tris pH 7.2 with Mg2+ 50 uM-1 mM; max capacity about 6.5 ug hIgG/ug aptamer in 10 mM Tris, 0.5 mM Mg; purified native protein; protein details: Sigma-Aldrich, IgG from human serum; label: 5'-biotin.

For at least one entry, the source does not settle the construct or the ends of the probe. For some assays here: A negative result means that nothing was seen under these conditions.

With “GGAGGUGCUCCGAAAGGAACUCC [anti-human Fc 23-nt aptamer SEQ ID NO 1]”, the binding result in series [1] is “no binding”; in series [2], “binds”.
